# According to PubChem BioAssay AID445 (National Center for Advancing Translational Sciences (NCATS), 2006):
# Where “and” joins values, the source holds several entries; their conditions need not be identical. Equal entries are not always repeated. Some of the results follow. The main result of the screen is listed elsewhere. These columns were measured beside it and carry no call. The list favours compounds with an active or inconclusive main result. Words in brackets tell the shape of the fitted curve; partial curves, single points and poor fits give uncertain potencies.
# Test: IkB Signaling
# Conditions: ABC-DLBCL IkBa-CBG/CBR dual luciferase ratio (green luciferase fused to IkBa over red control in OCI-Ly3 lymphoma cells), 4 h
# Outline: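 In this assay, an IκBα–CBG68 fusion accumulates when IKK-driven degradation is blocked; native CBR normalizes for cell number. OCI-Ly3 cells were treated 4 h with compound and doxycycline, then green and red light read after Chroma-Glo addition.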
# [1] = measured here: control luc red channel unless noted
# [2] = measured here: IkB-luc green channel
# [3] = measured here: control luc red channel
smiles,measurement,setting,value
O=C(CSc1nnc(C2COc3ccccc3O2)o1)N1CCCc2ccccc21 (stereo not given),AC50,[1],"15.8 µM [falling, partial curve]"
COc1ccccc1Nc1nn2c(=O)c3ccc(C(=O)NCc4cccs4)cc3nc2s1,AC50,[1],"6.31 µM [falling, full curve]"
Cc1ccc2c(=O)c(C(=O)c3ccc(F)cc3)cn(CC(=O)NCc3ccccc3)c2n1,AC50,[1],"39.8 µM [falling, single point]"
COC(=O)c1ccc(C(=O)OC)c(NC(=O)COC(=O)C23CC4CC(CC(O)(C4)C2)C3)c1,AC50,[1],"25.1 µM [falling, partial curve]"
COc1ccc(OC)c(S(=O)(=O)NCCc2sc(-c3ccc(C)cc3)nc2C)c1,AC50,[1],"0.1 µM [falling, full curve]"
Cc1ccc(C)c(NC(=O)c2ccccc2O)c1,AC50,[1],"39.8 µM [falling, single point]"
COc1ccc(C(=O)Nc2ccc(-c3nc4ncccc4o3)cc2)cc1,AC50,[1],"39.8 µM [falling, single point]"
Cc1cc(Nc2ccc(C)c(C)c2)n2cnnc2n1,AC50,[1],"39.8 µM [falling, partial curve]"
CCCN(CCC)C(=O)CSc1nnc2cc(C)c3cc(C)cc(C)c3n12,AC50,[1],"1 µM [falling, partial curve]"
Cc1cccc(CN2C(=O)c3ccccc3Sc3ccc(C(=O)N4CCCC4)cc32)c1,AC50,[1],"25.1 µM [falling, single point]"
COC(=O)c1c(-c2cccs2)csc1NC(=O)c1ccc(Cl)cc1,AC50,[1],"25.1 µM [falling, partial curve]"
COCCN1C(=O)c2[nH]nc(-c3ccccc3O)c2C1c1ccc(OCc2ccccc2)c(OC)c1 (stereo not given),AC50,[1],"25.1 µM [falling, single point]"
CCc1ccc(N(CC)C(=O)c2ccc3c(=O)n4c(nc3c2)CCCCC4)cc1,AC50,[1],"12.6 µM [falling, partial curve]"
CCN(CC)c1ccc(-c2nn3c(-c4ccccc4OC)nnc3s2)cc1,AC50,[1],"12.6 µM [falling, partial curve, poor fit]"
CCC(=O)Nc1cc(NC(=O)CSc2ncc(-c3ccc(F)cc3)n2Cc2ccco2)ccc1C,AC50,[1],"0.398 µM [falling, full curve]"
Cc1ccc(NC(=O)c2ncn(-c3ccccc3)n2)cc1Cl,AC50,[1],"3.98 µM [falling, full curve]"
Cc1nc(-n2nc(C)c(Cc3ccccc3Cl)c2C)sc1C(=O)N1CCCCC1C (stereo not given),AC50,[1],"20 µM [falling, partial curve]"
Cc1ccc(NC(=O)CS(=O)(=O)c2nc(-c3ccc(C)cc3)cn2-c2ccc(C)cc2)cc1,AC50,[1],"0.0398 µM [falling, full curve, poor fit]"
N#CCSc1nc2[nH]ncc2c(=O)n1-c1ccccc1Br,AC50,[1],"20 µM [rising, partial curve]"
O=S(=O)(c1ccc2ccccc2c1)n1nc(-c2ccco2)nc1NCc1ccc(F)cc1,AC50,[1],"15.8 µM [falling, partial curve]"
Cc1cc(NC(=O)CCCn2c(C)c3cnn(-c4ccccc4)c(=O)c3c2C)ccc1Br,AC50,[1],"15.8 µM [falling, partial curve]"
Cc1cc(C)cc(C(=O)N(Cc2nc(-c3ccc(Cl)cc3)no2)C(C)C)c1,AC50,[1],"7.94 µM [falling, full curve]"
CCOc1ccccc1NC(=O)CN1C(=O)CC(c2ccco2)Sc2ccccc21 (stereo not given),AC50,[1],"31.6 µM [falling, partial curve]"
COc1ccc(N2CCN(C(=O)c3cn(C4CCCC4)c(=O)c4c3c3ccccc3n4C)CC2)cc1,AC50,[1],"12.6 µM [falling, partial curve]"
COC(=O)c1ccc(OCC(O)Cn2cnc3cc(C)c(C)cc32)cc1 (stereo not given),AC50,[1],"20 µM [falling, partial curve, poor fit]"
CCN(C(=O)CSc1ncc(S(=O)(=O)c2ccc(C)c(Cl)c2)c(=O)[nH]1)c1cccc(C)c1,AC50,[1],"25.1 µM [falling, partial curve]"
COc1ccc(NC(=O)CC2SC(=Nc3ccccc3)NC2=O)c(OC)c1 (stereo not given),AC50,[1],"7.94 µM [falling, partial curve]"
COc1ccc(NC(=O)Nc2cccc3cccnc23)cc1,AC50,[1],"12.6 µM [falling, partial curve]"
COc1ccc(OC)c(NC(=O)c2cc3c(s2)-c2ccccc2SC3)c1,AC50,[1],"6.31 µM [falling, partial curve]"
Cc1ccc(-n2ncc(C(=O)NC3CCCC3)c2C2CCN(C(=O)OC(C)(C)C)CC2)c(C)c1,AC50,[1],"12.6 µM [falling, partial curve]"
Cc1ccc(C)c(NS(=O)(=O)c2ccc3c4c(cccc24)C(=O)N3)c1,AC50,[1],"6.31 µM [falling, full curve]"
COc1ccc(OC)c(Nc2nc3ccccc3n3c(C)nnc23)c1,AC50,[1],"0.398 µM [falling, full curve, poor fit]"
Nc1nc(NC(=O)c2ccco2)nn1-c1ccccc1,AC50,[1],"6.31 µM [falling, partial curve]"
O=C(Nc1cc(-c2nc3cc(Cl)ccc3o2)ccc1Cl)c1cccs1,AC50,[1],"7.94 µM [falling, partial curve]"
COc1ccc(COC(=O)c2[nH]c3c(c2C)C(=O)CC(c2ccc(OC)c(OC)c2)C3)cc1 (stereo not given),AC50,[1],"3.98 µM [falling, full curve]"
C#CC(C)(CC)NC(=O)Cn1nnc(-c2ccc(OCc3ccccc3F)cc2)n1 (stereo not given),AC50,[1],"3.16 µM [falling, full curve, poor fit]"
CCN(CC)C(=O)CSc1nc(-c2ccccc2)cc(-c2ccc(OC)cc2)c1C#N,AC50,[1],"3.98 µM [rising, single point]"
COc1ccc(C2Nc3ccccc3-n3c(-c4ccccc4)c4c(=O)n(C)c(=O)n(C)c4c32)cc1 (stereo not given),AC50,[1],"10 µM [falling, partial curve]"
COc1ccccc1-c1noc(-c2ccc(NCc3ccccc3)c([N+](=O)[O-])c2)n1,AC50,[1],"0.501 µM [rising, full curve]"
COc1ccc(N2Cc3cccc(C(=O)Nc4ccc(C)cc4)c3C2=O)cc1,AC50,[1],"39.8 µM [rising, single point]"
Cc1ccc(O)c(N=CC2=C(O)c3ccccc3C2=O)c1,AC50,[2],"3.16 µM [rising, partial curve]"
same,AC50,[3],"25.1 µM [falling, single point]"
CCC(=O)N1CCc2cc(S(=O)(=O)N3CCN(c4ccccc4F)CC3)ccc21,AC50,[1],"25.1 µM [falling, single point]"
COc1cc(OC)c(NC(=O)Cn2nc(C)n3cccc3c2=O)cc1Cl,AC50,[1],"6.31 µM [falling, partial curve]"
COc1ccccc1OCC(=O)Nc1ccc(S(=O)(=O)N2CCCCCC2)cc1,AC50,[1],"12.6 µM [falling, partial curve]"
COc1ccc(OC)c(NC(=O)CN2CCC(C(=O)c3ccc(C)cc3)CC2)c1,AC50,[1],"20 µM [falling, partial curve]"
CCN(CC)S(=O)(=O)c1ccc2c(c1)c(=O)c(C(=O)NCCc1ccc(OC)c(OC)c1)cn2C,AC50,[1],"0.158 µM [rising, partial curve]"
O=C(Nc1cnc2ccccn2c1=O)c1ccc(F)cc1,AC50,[1],"15.8 µM [falling, partial curve]"
CCOC(=O)c1nnn(-c2nonc2N)c1COc1cc(C)c(Cl)c(C)c1,AC50,[1],"15.8 µM [falling, partial curve]"
CCCCc1nc2ccccc2c(=O)n1NC(=O)c1c(O)c2c(n(CC(C)C)c1=O)CCCC2,AC50,[1],"6.31 µM [falling, partial curve]"
Cc1coc2cc3oc(=O)c(CCC(=O)N4CCCCC4)c(C)c3cc12,AC50,[1],"39.8 µM [falling, single point]"
C[C@@]12C(=O)OC(=O)[C@@]1(C)[C@H]1CC[C@@H]2O1,AC50,[2],"31.6 µM [rising, partial curve] and 3.98 µM [rising, partial curve]"
same,AC50,[3],"20 µM [rising, partial curve] and 1.58 µM [rising, partial curve]"
c1coc(CNc2nc3nonc3nc2NCc2ccco2)c1,AC50,[1],"25.1 µM [falling, partial curve]"
COc1ccc(CNC2CC(=O)N(C)C2=O)cc1 (stereo not given),AC50,[1],"39.8 µM [rising, single point]"
Cc1cn2c(=O)cc(COC(=O)c3cccc(NC(=O)COc4ccccc4)c3)nc2s1,AC50,[1],"0.126 µM [falling, full curve]"
Cc1cc(C)n2nc(-c3ccc(Cl)cc3)nc2n1,AC50,[1],"6.31 µM [rising, single point]"
Cc1cccc(N2CCN(c3nc4ccc(C(=O)c5ccccc5)cc4n4cnnc34)CC2C)c1 (stereo not given),AC50,[1],"20 µM [falling, partial curve, poor fit]"
O=C1c2c(O)ccc(O)c2C(=O)c2c(NCCNCCO)ccc(NCCNCCO)c21,AC50,[2],"5.01 µM [falling, partial curve]"
same,AC50,[3],"10 µM [falling, partial curve] and 3.98 µM [falling, partial curve]"
Cc1ccc2c(CC(=O)N3CCN(c4cccc(Cl)c4)CC3)coc2c1C,AC50,[1],"25.1 µM [falling, partial curve]"
CCc1nnc(NC(=O)CCC(=O)Nc2ccccc2)s1,AC50,[2],"31.6 µM [rising, single point]"
same,AC50,[3],"20 µM [rising, partial curve]"
Cc1cc(N2CCN(S(=O)(=O)c3ccccc3)CC2)c2ccccc2n1,AC50,[1],"7.94 µM [falling, partial curve]"
COC(=O)CN1C(=O)CSc2ccc(S(=O)(=O)Nc3ccccc3)cc21,AC50,[1],"39.8 µM [falling, single point]"

# Random excerpt: four entries already listed, in no set order.
smiles,measurement,setting,value
c1coc(CNc2nc3nonc3nc2NCc2ccco2)c1,AC50,[1],"25.1 µM [falling, partial curve]"
Cc1ccc(NC(=O)c2ncn(-c3ccccc3)n2)cc1Cl,AC50,[1],"3.98 µM [falling, full curve]"
CCN(CC)c1ccc(-c2nn3c(-c4ccccc4OC)nnc3s2)cc1,AC50,[1],"12.6 µM [falling, partial curve, poor fit]"
COC(=O)c1ccc(C(=O)OC)c(NC(=O)COC(=O)C23CC4CC(CC(O)(C4)C2)C3)c1,AC50,[1],"25.1 µM [falling, partial curve]"
